Results are given in words; binding and its absence hold for the method and conditions named.
Key:
Assay in all cases: dot blot; also Western blot and ELISA
[1] = substrate: CP of tobacco mosaic virus (TMV) (genus Tobamovirus) (Tobacco mosaic virus)
[2] = substrate: CP of tomato mottle mosaic virus (ToMMV) (genus Tobamovirus) (Tomato mottle mosaic virus)
[3] = substrate: CP of tomato mosaic virus (ToMV) (genus Tobamovirus) (Tomato mosaic virus)
[4] = substrate: CP of chilli mottle virus (PepMoV) (genus Potyvirus) (chilli mottle virus (PepMoV))
[5] = substrate: CP of chilliveinal mottle virus (PVMV) (genus Potyvirus) (chilliveinal mottle virus (PVMV))
[6] = substrate: CP of turnip mosaic virus (TuMV) (genus Potyvirus) (Turnip mosaic virus)

Measured: binding

B1: monoclonal antibody C1 (antibody, V domains shown)
VH: EVQLQQSGAELVRPGALVKLSCKASGFNIKDYYMHWVKQRPEEGLEWIGWIDPENGNTIYDPKFQGKASITADTSSNTVRLQLSSLTSEDTAVYYCARERGAYWGQGTLVTVSA
VL: QIVLTQSPAIMSASPGEKVTMTCSASSSVSYMYWFQQKPGSSPRLLIYDTSNLASGVPVRFSGSGSGTSYSLTISRMEAEDAATFYCQQWSSYPLTFGAGTKLELK
no binding: all assays above

B2: monoclonal antibody N1 (antibody, V domains shown)
VH: EVQLVESGGGLVQPGGSLKLSCAASGFTFSSYGMSWVRQSPDKRLEWVATINNNGGSTYYPDSVKGRFTISRDNAKNTLYLQMSSLKSEDTAVYYCARDAAFDCWGQGTTLTVSS
VL: DIVMSQSPSSLAVSAGEKVTMSCKSSQSLLNSRTRKNYLAWYQQKPGQSPKLLIYWASTRESGVPDRFTGSGSGTDFTLTISSVQAEDLAVYYCKQSYNLFTFGSGTKLEIK
no binding: all assays above

B3: monoclonal antibody M3 (antibody, V domains shown)
VH: EVILVESGGGLVKPGGSLRLSCAASGFTFSSHPLSWVRQSPDKRLEWVASISSGGRYTYYPDSVKGRLTISRDNAKNILYLHMNSLRSEDTAMYYCARRGSTATAWFAYWGQGTLVTVSA
VL: DIALTQSPASLAVSLGQRATISCKASQSVDYDGDSYMSWYQQKPGQPPKLLIYGASNLESGIPARFSGSGSGTDFTLNIHPVEEEDAATYYCQQSNEDLPTFGGGTKLEIK
no binding: all assays above
